B1: humanized anti-BKB2R antibody L2/H1 (antibody, human IgG2, kappa, V domains shown)
VH: EVQLVESGGGLVQPGGSLRLSCAASGFTFSDYWMSWVRQAPGKGLEWVAEIRLKSDNYATHYAESVKGRFTISRDNAKNSLYLQMNSLRAEDTAVYYCTRDYYAMEYWGQGTLVTVSS
VL: DIVMTQSPLSLPVTPGEPASISCRSSQTIVHSNGKTYLEWYLQKPGQSPQLLIYKVSNRFSGVPDRFSGSGSGTEFTLKISRVEAEDVGVYYCFQASHVPYTFGQGTKLEIKR
B2: humanized anti-BKB2R antibody H38/L39 (antibody, human IgG2, kappa, V domains shown)
VH: EVQLLESGGGLVQPGGSLKLSCAVSGFTFSDYWMSWVRQAPGKGLEWVSEIRLKSDNYATHYADSVKGRFTISRDDSKNTLYLQMNSLRAEDTAVYYCTRDYYAMEYWGQGTLVTVSS
VL: DVVMTQTPLSLSVTPGQPASISCKSSQTIVHSNGKTYLEWYLQKPGQSPQLLIYKVSNRFSGVPDRFSGSGSGTDFTLKISRVEAEDVGVYYCFQASHVPYTFGQGTKLEIKR
B3: humanized anti-BKB2R antibody H38/L38 (antibody, human IgG2, kappa, V domains shown)
VH: EVQLLESGGGLVQPGGSLKLSCAVSGFTFSDYWMSWVRQAPGKGLEWVSEIRLKSDNYATHYADSVKGRFTISRDDSKNTLYLQMNSLRAEDTAVYYCTRDYYAMEYWGQGTLVTVSS
VL: DIVMTQTPLSLPVTSGEPASISCRSSQTIVHSNGKTYLDWYLQKPGQSPQLLIYKVSNRASGVPDRFSGSGSGTDFTLKISRVEAEDVGVYYCFQASHVPYTFGGGTKVEIKR
B4: humanized anti-BKB2R antibody L2/H2 (antibody, human IgG2, kappa, V domains shown)
VH: EVQLVESGGGLVQPGGSLRLSCVASGFTFSDYWMSWVRQAPGKGLEWVAEIRLKSDNYATHYAESVKGRFTISRDDAKNSLYLQMNSLRAEDTAVYYCTRDYYAMEYWGQGTLVTVSS
VL: DIVMTQSPLSLPVTPGEPASISCRSSQTIVHSNGKTYLEWYLQKPGQSPQLLIYKVSNRFSGVPDRFSGSGSGTEFTLKISRVEAEDVGVYYCFQASHVPYTFGQGTKLEIKR
notes: also called H2/L2
B5: humanized anti-BKB2R antibody H39/L37 (antibody, human IgG2, kappa, V domains shown)
VH: EVKLVESGGGLVQPGGSLRLSCAVSGFTFSDYWMDWVRQAPGKGLEWVAEIRLKSDNYATHYAASVKGRFTISRDDSKSRLYLQMNSLKTEDTAVYYCTRDYYAMEYWGQGTTVTVSS
VL: DIVMTQTPLSLSVTPGQPASISCKSSQTIVHSNGKTYLYWYLQKPGQSPQLLIYKVSSRFSGVPDRFSGSGSGTDFTLKISRVEAEDVGVYYCFQASHVPYTFGQGTKLEIKR

These results are taken from patent US20140017242A1, “ANTI-BRADYKININ B2 RECEPTOR (BKB2R) MONOCLONAL ANTIBODY” (Diamedica, Inc., priority 2010, published 2014).

No constants are given. Whether binding was seen depends on the method and setting. Some entries that bind do so weakly or less than the wild type. Where no end group is shown, it is not given here.

This experiment has as its target T1, human BKB2R-derived epitope peptide (SEQ ID NO:73), PEG-biotin (human).
T1 sequence (peptide, PEG-biotin (printed as 'Seq ID No. 2-PEG-biotin' in p-0437)): KEYSDEGHNVTAC
Briefly: BLI (Octet), peptide on sensor.
Turning to B1, the binding entry is given as “binds”.

Regarding B2, the binding entry was “binds”.

Consider B3, for which the binding result was “binds”.

Take B4: the binding result is reported as “binds”.

Take B5: the binding result was “binds”.
